Measured values taken from patent publication US7655756B2 (Johnson & Johnson Pharmaceutical Research & Development, LLC, priority 2005, dated 2010).
Results are given in words; binding and its absence hold for the method and conditions named. Some binding calls cover weakened binding; strength is not graded here. Sequences can lack the tags named with a protein.

Columns and labels:
[1] = target: 6His-tagged human ERRγ ligand binding domain (LBD) (229-458) (human) (UniProt P62508); test: X-ray crystal structures, space group P41212, one molecule in the asymmetric unit
[2] = target: 6His-tagged human ERRγ ligand binding domain (LBD) (229-458) (human) (UniProt P62508); test: size exclusion chromatography and dynamic light scattering, 4 µM protein and higher (self-association)

B1: 6His-tagged human ERRγ ligand binding domain (LBD) (229-458) (receptor)
chain: HHHHHHPAKKPYNKIVSHLLVAEPEKIYAMPDPTVPDSDIKALTTLCDLADRELVVIIGWAKHIPGFSTLSLADQMSLLQSAWMEILILGVVYRSLSFEDELVYADDYIMDEDQSKLAGLLDLNNAILQLVKKYKSMKLEKEEFVTLKAIALANSDSMHIEDVEAVQKLQDVLHEALQDYEAGQHMEDPRRAGKMLMTLPLLRQTSTKAVQHFYNIKLEGKVPMHKLFLEMLEAKV
binding [1]: binds | binding [2]: binds
